Values of other authors, collected in patent US9173863B2, “Antiviral compound and COX-2 inhibitor combination therapy for functional somatic syndromes, including combination of famciclovir and celecoxib” (INNOVATIVE MED CONCEPTS, LLC, priority 2012, dated 2015).
At least one compound was matched to its structure with a doubt left.

Test system: herpes viral reactivation in the nervous system of mice

## Cc1ccc(-c2cc(C(F)(F)F)nn2-c2ccc(S(N)(=O)=O)cc2)cc1 [celecoxib]
  Suppression of hyperthermic stress-induced herpes viral reactivation: can suppress hyperthermic stress-induced herpes viral reactivation
